Measured values published in the supplement of paper PMC6411743.
± gives the standard deviation of the averaged measurements. Only a part is listed here, and it is no random draw.

Chains of the proteins cited; added tags and fusions are not shown. Lines headed by an entry give the natural chain unless they say otherwise; changes in a name come on top.
UniProt Q9UEE5: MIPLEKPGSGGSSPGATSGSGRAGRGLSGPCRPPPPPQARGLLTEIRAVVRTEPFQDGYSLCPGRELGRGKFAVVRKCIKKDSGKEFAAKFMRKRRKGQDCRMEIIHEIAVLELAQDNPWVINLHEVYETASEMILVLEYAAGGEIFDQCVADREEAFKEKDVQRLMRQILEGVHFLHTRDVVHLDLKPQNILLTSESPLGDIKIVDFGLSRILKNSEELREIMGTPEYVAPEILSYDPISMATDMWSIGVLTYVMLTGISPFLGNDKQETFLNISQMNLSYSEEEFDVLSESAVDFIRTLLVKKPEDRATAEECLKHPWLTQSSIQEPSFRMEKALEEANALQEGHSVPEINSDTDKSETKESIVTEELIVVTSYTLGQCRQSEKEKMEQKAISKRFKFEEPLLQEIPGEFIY
UniProt Q9UPZ3: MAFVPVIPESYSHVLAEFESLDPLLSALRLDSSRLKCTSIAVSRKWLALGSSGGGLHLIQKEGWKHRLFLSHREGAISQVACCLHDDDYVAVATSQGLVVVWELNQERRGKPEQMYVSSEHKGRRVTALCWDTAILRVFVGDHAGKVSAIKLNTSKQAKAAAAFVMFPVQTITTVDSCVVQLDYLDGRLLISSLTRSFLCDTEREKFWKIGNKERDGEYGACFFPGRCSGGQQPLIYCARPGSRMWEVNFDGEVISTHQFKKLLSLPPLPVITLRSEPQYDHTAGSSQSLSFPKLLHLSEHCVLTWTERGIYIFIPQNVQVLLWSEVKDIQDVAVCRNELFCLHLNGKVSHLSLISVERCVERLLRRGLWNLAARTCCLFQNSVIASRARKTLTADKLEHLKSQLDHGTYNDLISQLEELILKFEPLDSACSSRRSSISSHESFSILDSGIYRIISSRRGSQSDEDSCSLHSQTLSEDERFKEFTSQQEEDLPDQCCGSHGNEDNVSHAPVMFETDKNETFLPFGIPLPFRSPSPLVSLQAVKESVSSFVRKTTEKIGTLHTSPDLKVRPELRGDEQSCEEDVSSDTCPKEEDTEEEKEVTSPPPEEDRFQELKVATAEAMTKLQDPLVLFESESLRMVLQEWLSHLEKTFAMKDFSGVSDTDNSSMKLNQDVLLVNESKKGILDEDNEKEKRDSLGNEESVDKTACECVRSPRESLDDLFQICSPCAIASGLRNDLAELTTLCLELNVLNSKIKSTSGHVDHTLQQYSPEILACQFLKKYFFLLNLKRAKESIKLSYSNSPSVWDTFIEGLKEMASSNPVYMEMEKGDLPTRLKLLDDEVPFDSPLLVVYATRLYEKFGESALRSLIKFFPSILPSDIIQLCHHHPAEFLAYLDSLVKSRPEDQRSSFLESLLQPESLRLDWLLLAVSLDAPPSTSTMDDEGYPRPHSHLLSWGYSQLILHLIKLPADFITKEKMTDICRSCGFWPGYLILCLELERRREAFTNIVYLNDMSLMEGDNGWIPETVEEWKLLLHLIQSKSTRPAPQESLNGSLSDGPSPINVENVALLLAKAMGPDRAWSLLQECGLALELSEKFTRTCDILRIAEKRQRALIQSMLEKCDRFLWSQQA
UniProt Q9P287, whole entry: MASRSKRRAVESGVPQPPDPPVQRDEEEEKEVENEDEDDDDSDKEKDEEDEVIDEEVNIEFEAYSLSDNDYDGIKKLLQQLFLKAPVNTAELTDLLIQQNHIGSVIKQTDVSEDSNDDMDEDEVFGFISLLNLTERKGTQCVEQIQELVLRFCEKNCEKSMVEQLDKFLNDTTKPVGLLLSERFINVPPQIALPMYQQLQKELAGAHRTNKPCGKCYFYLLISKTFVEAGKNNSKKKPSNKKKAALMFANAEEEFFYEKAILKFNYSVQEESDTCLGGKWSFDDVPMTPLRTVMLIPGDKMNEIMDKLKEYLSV
UniProt Q9UNS1: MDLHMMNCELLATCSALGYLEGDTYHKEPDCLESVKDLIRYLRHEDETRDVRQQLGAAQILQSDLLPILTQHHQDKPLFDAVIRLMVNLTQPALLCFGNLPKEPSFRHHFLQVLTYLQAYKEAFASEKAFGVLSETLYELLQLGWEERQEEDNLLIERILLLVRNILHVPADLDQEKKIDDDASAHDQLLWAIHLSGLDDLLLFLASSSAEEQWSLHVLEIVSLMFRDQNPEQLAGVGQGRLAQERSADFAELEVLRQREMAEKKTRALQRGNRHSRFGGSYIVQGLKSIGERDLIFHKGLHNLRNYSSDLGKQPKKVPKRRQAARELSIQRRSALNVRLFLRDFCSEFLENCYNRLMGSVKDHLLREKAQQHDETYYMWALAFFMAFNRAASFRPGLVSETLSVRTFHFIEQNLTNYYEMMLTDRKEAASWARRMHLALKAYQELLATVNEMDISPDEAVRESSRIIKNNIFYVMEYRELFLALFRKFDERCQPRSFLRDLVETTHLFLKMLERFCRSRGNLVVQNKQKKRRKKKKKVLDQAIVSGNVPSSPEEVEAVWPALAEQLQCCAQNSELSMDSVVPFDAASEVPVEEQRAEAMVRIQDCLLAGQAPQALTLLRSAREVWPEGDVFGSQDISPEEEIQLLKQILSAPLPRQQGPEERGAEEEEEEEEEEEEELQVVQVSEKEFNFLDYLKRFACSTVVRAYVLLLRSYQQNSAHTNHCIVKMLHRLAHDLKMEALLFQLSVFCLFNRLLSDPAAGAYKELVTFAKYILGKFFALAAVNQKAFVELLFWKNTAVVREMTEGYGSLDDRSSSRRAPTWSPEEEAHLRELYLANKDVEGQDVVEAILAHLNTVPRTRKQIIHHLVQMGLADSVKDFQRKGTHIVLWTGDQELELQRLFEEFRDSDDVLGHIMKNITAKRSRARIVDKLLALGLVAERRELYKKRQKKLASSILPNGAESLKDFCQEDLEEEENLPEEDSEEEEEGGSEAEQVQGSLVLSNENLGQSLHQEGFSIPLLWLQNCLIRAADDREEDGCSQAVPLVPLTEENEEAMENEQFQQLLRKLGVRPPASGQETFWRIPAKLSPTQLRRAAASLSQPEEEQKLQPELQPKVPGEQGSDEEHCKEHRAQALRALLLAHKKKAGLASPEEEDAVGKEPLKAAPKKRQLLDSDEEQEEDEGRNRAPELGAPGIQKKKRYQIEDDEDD
UniProt Q9UIJ7: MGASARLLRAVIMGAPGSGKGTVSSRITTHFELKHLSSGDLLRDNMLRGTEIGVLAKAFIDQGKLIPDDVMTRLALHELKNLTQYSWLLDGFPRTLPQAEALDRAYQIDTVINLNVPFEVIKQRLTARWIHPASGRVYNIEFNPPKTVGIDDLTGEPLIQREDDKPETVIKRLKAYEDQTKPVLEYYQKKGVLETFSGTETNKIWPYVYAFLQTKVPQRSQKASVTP
UniProt Q9Y295: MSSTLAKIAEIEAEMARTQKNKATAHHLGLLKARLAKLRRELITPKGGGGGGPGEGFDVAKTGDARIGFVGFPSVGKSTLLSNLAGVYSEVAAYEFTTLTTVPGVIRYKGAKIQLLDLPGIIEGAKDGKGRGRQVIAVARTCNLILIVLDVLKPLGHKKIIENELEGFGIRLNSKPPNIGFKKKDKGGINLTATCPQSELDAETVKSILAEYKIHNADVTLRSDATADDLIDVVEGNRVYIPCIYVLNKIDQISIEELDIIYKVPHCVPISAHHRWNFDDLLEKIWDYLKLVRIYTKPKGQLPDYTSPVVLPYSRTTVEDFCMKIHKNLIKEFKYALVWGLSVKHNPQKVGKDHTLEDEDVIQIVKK
UniProt Q9ULH0: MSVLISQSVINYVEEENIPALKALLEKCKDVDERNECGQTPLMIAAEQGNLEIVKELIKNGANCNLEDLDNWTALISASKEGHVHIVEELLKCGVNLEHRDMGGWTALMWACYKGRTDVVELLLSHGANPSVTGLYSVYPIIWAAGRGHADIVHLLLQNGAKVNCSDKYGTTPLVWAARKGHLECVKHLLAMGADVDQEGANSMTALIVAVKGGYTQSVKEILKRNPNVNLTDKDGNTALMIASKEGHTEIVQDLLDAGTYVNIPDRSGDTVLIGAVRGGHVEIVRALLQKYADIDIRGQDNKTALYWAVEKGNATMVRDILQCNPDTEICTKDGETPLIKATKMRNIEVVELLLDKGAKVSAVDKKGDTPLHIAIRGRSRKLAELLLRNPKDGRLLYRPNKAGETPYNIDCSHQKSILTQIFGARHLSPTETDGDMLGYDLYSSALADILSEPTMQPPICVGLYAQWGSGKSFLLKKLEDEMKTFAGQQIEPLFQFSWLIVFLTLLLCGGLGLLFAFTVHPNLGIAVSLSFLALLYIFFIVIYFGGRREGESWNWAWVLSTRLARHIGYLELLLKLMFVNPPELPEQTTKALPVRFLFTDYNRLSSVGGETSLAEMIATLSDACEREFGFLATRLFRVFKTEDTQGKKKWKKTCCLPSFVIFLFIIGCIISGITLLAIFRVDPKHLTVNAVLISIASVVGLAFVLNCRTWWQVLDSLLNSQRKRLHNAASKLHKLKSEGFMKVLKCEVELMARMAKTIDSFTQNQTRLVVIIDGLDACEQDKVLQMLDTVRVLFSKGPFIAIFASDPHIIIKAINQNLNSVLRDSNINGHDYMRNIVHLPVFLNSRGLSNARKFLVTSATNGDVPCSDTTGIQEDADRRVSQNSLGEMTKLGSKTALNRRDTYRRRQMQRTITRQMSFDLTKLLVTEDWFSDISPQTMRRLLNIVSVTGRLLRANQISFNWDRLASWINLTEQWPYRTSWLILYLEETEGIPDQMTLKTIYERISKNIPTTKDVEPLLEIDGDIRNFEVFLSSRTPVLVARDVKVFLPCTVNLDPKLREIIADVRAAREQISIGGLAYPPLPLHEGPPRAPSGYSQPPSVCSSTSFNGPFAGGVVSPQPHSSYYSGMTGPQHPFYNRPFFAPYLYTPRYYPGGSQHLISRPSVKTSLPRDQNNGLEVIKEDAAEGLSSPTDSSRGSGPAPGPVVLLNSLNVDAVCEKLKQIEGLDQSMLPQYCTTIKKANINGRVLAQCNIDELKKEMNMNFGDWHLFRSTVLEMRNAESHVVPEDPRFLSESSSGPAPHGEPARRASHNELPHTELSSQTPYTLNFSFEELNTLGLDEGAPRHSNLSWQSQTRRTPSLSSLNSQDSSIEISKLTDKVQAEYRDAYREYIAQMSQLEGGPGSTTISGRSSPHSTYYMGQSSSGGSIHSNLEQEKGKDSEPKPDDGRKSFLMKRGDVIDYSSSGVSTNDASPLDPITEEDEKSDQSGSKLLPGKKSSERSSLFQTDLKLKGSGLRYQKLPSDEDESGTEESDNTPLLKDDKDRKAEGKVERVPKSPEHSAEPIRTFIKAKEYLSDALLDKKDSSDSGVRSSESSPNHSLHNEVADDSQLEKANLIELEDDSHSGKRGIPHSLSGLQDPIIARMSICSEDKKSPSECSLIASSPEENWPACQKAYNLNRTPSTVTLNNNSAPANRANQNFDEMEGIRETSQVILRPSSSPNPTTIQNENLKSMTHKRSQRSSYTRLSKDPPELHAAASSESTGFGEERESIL
UniProt Q9UBQ7: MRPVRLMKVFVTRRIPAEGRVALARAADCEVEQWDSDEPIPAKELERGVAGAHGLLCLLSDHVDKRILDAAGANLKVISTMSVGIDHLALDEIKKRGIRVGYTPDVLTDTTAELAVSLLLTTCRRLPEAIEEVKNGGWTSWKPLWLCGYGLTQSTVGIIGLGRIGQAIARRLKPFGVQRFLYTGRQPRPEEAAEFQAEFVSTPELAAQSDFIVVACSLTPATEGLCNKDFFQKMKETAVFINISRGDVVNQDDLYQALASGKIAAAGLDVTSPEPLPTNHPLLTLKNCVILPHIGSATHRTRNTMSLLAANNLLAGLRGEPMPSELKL
UniProt Q9UNW1: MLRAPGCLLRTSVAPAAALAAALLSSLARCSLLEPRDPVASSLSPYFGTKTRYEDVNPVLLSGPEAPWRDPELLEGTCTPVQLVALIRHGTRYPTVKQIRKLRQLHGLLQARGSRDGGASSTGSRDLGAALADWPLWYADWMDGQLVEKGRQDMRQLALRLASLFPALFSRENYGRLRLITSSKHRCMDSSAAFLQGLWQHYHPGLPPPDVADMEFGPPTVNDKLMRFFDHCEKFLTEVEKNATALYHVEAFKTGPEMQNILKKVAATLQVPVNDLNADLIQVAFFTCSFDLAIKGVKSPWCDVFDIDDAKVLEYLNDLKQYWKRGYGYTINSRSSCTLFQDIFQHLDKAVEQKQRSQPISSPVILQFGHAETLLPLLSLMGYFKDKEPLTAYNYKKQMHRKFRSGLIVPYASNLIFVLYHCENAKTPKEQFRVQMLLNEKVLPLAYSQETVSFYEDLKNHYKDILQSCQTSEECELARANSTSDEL
UniProt Q9UBE0: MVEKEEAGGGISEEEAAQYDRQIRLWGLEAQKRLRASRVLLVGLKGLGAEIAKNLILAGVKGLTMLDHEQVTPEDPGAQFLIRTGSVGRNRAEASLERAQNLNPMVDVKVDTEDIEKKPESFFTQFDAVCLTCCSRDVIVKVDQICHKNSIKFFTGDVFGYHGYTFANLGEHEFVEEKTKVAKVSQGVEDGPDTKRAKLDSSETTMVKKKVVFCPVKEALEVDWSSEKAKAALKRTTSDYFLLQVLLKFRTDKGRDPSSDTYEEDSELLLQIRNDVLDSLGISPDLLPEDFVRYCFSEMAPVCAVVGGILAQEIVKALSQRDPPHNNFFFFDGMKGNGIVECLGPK

The targets below were run with Nc1ncnc2c1ncn2[C@@H]1O[C@H](COP(=O)(O)OP(=O)(O)OP(=O)(O)O)[C@@H](O)[C@H]1O [adenosine triphosphate] (assay: NP40-soluble protein abundance relative to vehicle (solubility fold change) (ratio); higher = more soluble protein in presence of ATP). Conditions: concentration: 4mM.
Procedure, shortened: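 Eight concentrations, 0.1 to 10 mM, were tested on Jurkat crude lysate for 10 min at room temperature and then 3 min at 37 °C, in three independent experiments. The lysate was solubilised with 0.8% NP40 and benzonase, ultracentrifuged, and the supernatant TMT-labelled for LC-MS/MS. Each value is the fold change against the detergent-processed vehicle in its own replicate, from vsn-normalised intensities.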
Work on UniProt Q9UJV9 and related entries yielded an NP40-soluble protein abundance of 1.47 ± 0.15. UniProt Q9UBC3 and related entries gave an NP40-soluble protein abundance of 1.52 ± 0.059. POLK (UniProt Q9UBT6) gave an NP40-soluble protein abundance of 1.04 ± 0.032. UniProt Q9UEE5 gave an NP40-soluble protein abundance of 1.15 ± 0.13. CYB5R1 (UniProt Q9UHQ9) was tested, and the NP40-soluble protein abundance was 0.977 ± 0.089. MKLN1 (UniProt Q9UL63) was tested, and the NP40-soluble protein abundance was 0.959 ± 0.034. In the case of UniProt Q9UQC2 and related entries, the NP40-soluble protein abundance is reported as 0.979 ± 0.061. UniProt Q9UPZ3 and related entries gave an NP40-soluble protein abundance of 1.03 ± 0.085. UniProt Q9UQ13 and related entries showed an NP40-soluble protein abundance of 0.958 ± 0.052. UniProt Q9UIG0 and related entries gave an NP40-soluble protein abundance of 1.13 ± 0.012. UniProt Q9P287 and related entries was tested, and the NP40-soluble protein abundance was 0.948 ± 0.015. SEL1L (UniProt Q9UBV2) gave an NP40-soluble protein abundance of 0.958 ± 0.034. In the case of UniProt Q9UNS1 and related entries, the NP40-soluble protein abundance is reported as 0.968 ± 0.019. In the case of UniProt Q9UM21, the NP40-soluble protein abundance is reported as 1.04 ± 0.055. With UniProt Q9UGR2 and related entries the NP40-soluble protein abundance was 1.08 ± 0.044. In the case of USP24 (UniProt Q9UPU5), the NP40-soluble protein abundance is reported as 0.988 ± 0.065. In the case of UniProt Q9UNZ2 and related entries, the NP40-soluble protein abundance is reported as 0.936 ± 0.019. UniProt Q9UJK0 was tested, and the NP40-soluble protein abundance was 0.949 ± 0.029. AK3 (UniProt Q9UIJ7) was tested, and the NP40-soluble protein abundance was 0.897 ± 0.012. In the case of PPIE (UniProt Q9UNP9), the NP40-soluble protein abundance is reported as 0.968 ± 0.015. UniProt Q9P2N6-3 gave an NP40-soluble protein abundance of 1.1 ± 0.11. For STOML2 (UniProt Q9UJZ1), the NP40-soluble protein abundance was 0.934 ± 0.062. UniProt Q9UQ84 and related entries was tested, and the NP40-soluble protein abundance was 1.088 ± 0.0069. DRG1 (UniProt Q9Y295) showed an NP40-soluble protein abundance of 0.971 ± 0.042. For TPX2 (UniProt Q9ULW0), the NP40-soluble protein abundance was 1.25 ± 0.046. UniProt Q9UJ83 and related entries showed an NP40-soluble protein abundance of 0.984 ± 0.045. UniProt Q9UGP4 and related entries showed an NP40-soluble protein abundance of 0.954 ± 0.037. Target UniProt Q9ULH0 and related entries has an NP40-soluble protein abundance of 1.07 ± 0.028. Work on UniProt Q9UDY8 and related entries yielded an NP40-soluble protein abundance of 1.02 ± 0.059. Target UniProt Q9UHC7 and related entries has an NP40-soluble protein abundance of 0.928 ± 0.035. GRHPR (UniProt Q9UBQ7) was tested, and the NP40-soluble protein abundance was 0.964 ± 0.059. Target MINPP1 (UniProt Q9UNW1) has an NP40-soluble protein abundance of 0.94 ± 0.02. UBQLN2 (UniProt Q9UHD9) was tested, and the NP40-soluble protein abundance was 0.904 ± 0.058. ZHX1 (UniProt Q9UKY1) was tested, and the NP40-soluble protein abundance was 1.08 ± 0.076. UniProt Q9UJX6 and related entries gave an NP40-soluble protein abundance of 0.979 ± 0.045. In the case of UniProt Q9UPW0 and related entries, the NP40-soluble protein abundance is reported as 0.897 ± 0.069. Work on SAE1 (UniProt Q9UBE0) yielded an NP40-soluble protein abundance of 0.929 ± 0.019.

Same assay, conditions: concentration: 6mM
For UniProt Q9UJV9 and related entries, the NP40-soluble protein abundance was 1.45 ± 0.14. UniProt Q9UBC3 and related entries gave an NP40-soluble protein abundance of 1.44 ± 0.088. Work on POLK (UniProt Q9UBT6) yielded an NP40-soluble protein abundance of 1.03 ± 0.05. Target UniProt Q9UEE5 has an NP40-soluble protein abundance of 1.21 ± 0.11. Target CYB5R1 (UniProt Q9UHQ9) has an NP40-soluble protein abundance of 0.942 ± 0.16. Work on MKLN1 (UniProt Q9UL63) yielded an NP40-soluble protein abundance of 0.943 ± 0.089. With UniProt Q9UQC2 and related entries the NP40-soluble protein abundance was 0.974 ± 0.082. Work on UniProt Q9UPZ3 and related entries yielded an NP40-soluble protein abundance of 1.06 ± 0.078. UniProt Q9UQ13 and related entries showed an NP40-soluble protein abundance of 1.04 ± 0.074. For UniProt Q9UIG0 and related entries, the NP40-soluble protein abundance was 1.23 ± 0.019. UniProt Q9P287 and related entries gave an NP40-soluble protein abundance of 0.937 ± 0.052. In the case of SEL1L (UniProt Q9UBV2), the NP40-soluble protein abundance is reported as 0.947 ± 0.021. With UniProt Q9UNS1 and related entries the NP40-soluble protein abundance was 0.964 ± 0.028. Target UniProt Q9UM21 has an NP40-soluble protein abundance of 0.994 ± 0.079. Work on UniProt Q9UGR2 and related entries yielded an NP40-soluble protein abundance of 1.05 ± 0.022. Work on USP24 (UniProt Q9UPU5) yielded an NP40-soluble protein abundance of 0.965 ± 0.038. UniProt Q9UNZ2 and related entries was tested, and the NP40-soluble protein abundance was 0.955 ± 0.021. UniProt Q9UJK0 gave an NP40-soluble protein abundance of 0.895 ± 0.015. In the case of AK3 (UniProt Q9UIJ7), the NP40-soluble protein abundance is reported as 0.898 ± 0.04. In the case of PPIE (UniProt Q9UNP9), the NP40-soluble protein abundance is reported as 1.016 ± 0.01. For UniProt Q9P2N6-3, the NP40-soluble protein abundance was 1.13 ± 0.17. STOML2 (UniProt Q9UJZ1) was tested, and the NP40-soluble protein abundance was 0.981 ± 0.14. Work on UniProt Q9UQ84 and related entries yielded an NP40-soluble protein abundance of 1.1 ± 0.095. In the case of DRG1 (UniProt Q9Y295), the NP40-soluble protein abundance is reported as 0.974 ± 0.086. TPX2 (UniProt Q9ULW0) gave an NP40-soluble protein abundance of 1.37 ± 0.035. With UniProt Q9UJ83 and related entries the NP40-soluble protein abundance was 0.936 ± 0.071. UniProt Q9UGP4 and related entries was tested, and the NP40-soluble protein abundance was 0.95 ± 0.027. For UniProt Q9ULH0 and related entries, the NP40-soluble protein abundance was 1.09 ± 0.081. Target UniProt Q9UDY8 and related entries has an NP40-soluble protein abundance of 0.991 ± 0.061. With UniProt Q9UHC7 and related entries the NP40-soluble protein abundance was 0.985 ± 0.14. For GRHPR (UniProt Q9UBQ7), the NP40-soluble protein abundance was 0.914 ± 0.096. For MINPP1 (UniProt Q9UNW1), the NP40-soluble protein abundance was 0.966 ± 0.04. UBQLN2 (UniProt Q9UHD9) showed an NP40-soluble protein abundance of 0.914 ± 0.12. For ZHX1 (UniProt Q9UKY1), the NP40-soluble protein abundance was 1.13 ± 0.057. UniProt Q9UJX6 and related entries was tested, and the NP40-soluble protein abundance was 0.899 ± 0.038. In the case of UniProt Q9UPW0 and related entries, the NP40-soluble protein abundance is reported as 0.923 ± 0.05. SAE1 (UniProt Q9UBE0) showed an NP40-soluble protein abundance of 0.965 ± 0.067.

Same assay, conditions: concentration: 8mM
With UniProt Q9UJV9 and related entries the NP40-soluble protein abundance was 1.51 ± 0.16. UniProt Q9UBC3 and related entries showed an NP40-soluble protein abundance of 1.54 ± 0.23. Target POLK (UniProt Q9UBT6) has an NP40-soluble protein abundance of 1.02 ± 0.04. Target UniProt Q9UEE5 has an NP40-soluble protein abundance of 1.15 ± 0.073. In the case of CYB5R1 (UniProt Q9UHQ9), the NP40-soluble protein abundance is reported as 0.996 ± 0.065. MKLN1 (UniProt Q9UL63) gave an NP40-soluble protein abundance of 0.969 ± 0.086. UniProt Q9UQC2 and related entries gave an NP40-soluble protein abundance of 0.877 ± 0.04. UniProt Q9UPZ3 and related entries was tested, and the NP40-soluble protein abundance was 1.08 ± 0.12. UniProt Q9UQ13 and related entries was tested, and the NP40-soluble protein abundance was 0.952 ± 0.053. For UniProt Q9UIG0 and related entries, the NP40-soluble protein abundance was 1.28 ± 0.033. With UniProt Q9P287 and related entries the NP40-soluble protein abundance was 0.939 ± 0.017. With SEL1L (UniProt Q9UBV2) the NP40-soluble protein abundance was 0.934 ± 0.047. Work on UniProt Q9UNS1 and related entries yielded an NP40-soluble protein abundance of 0.951 ± 0.01. For UniProt Q9UM21, the NP40-soluble protein abundance was 0.996 ± 0.01. UniProt Q9UGR2 and related entries was tested, and the NP40-soluble protein abundance was 1.06 ± 0.018. Target USP24 (UniProt Q9UPU5) has an NP40-soluble protein abundance of 0.999 ± 0.039. UniProt Q9UNZ2 and related entries showed an NP40-soluble protein abundance of 0.922 ± 0.013. UniProt Q9UJK0 was tested, and the NP40-soluble protein abundance was 0.962 ± 0.11. For AK3 (UniProt Q9UIJ7), the NP40-soluble protein abundance was 0.903 ± 0.036. Target PPIE (UniProt Q9UNP9) has an NP40-soluble protein abundance of 0.9771 ± 0.0044. UniProt Q9P2N6-3 gave an NP40-soluble protein abundance of 1.13 ± 0.16. For STOML2 (UniProt Q9UJZ1), the NP40-soluble protein abundance was 0.949 ± 0.076. In the case of UniProt Q9UQ84 and related entries, the NP40-soluble protein abundance is reported as 1.04 ± 0.038. For DRG1 (UniProt Q9Y295), the NP40-soluble protein abundance was 0.987 ± 0.048. Work on TPX2 (UniProt Q9ULW0) yielded an NP40-soluble protein abundance of 1.35 ± 0.029. With UniProt Q9UJ83 and related entries the NP40-soluble protein abundance was 0.971 ± 0.019. For UniProt Q9UGP4 and related entries, the NP40-soluble protein abundance was 0.94 ± 0.05. Work on UniProt Q9ULH0 and related entries yielded an NP40-soluble protein abundance of 1.04 ± 0.042. UniProt Q9UDY8 and related entries showed an NP40-soluble protein abundance of 1.04 ± 0.012. UniProt Q9UHC7 and related entries was tested, and the NP40-soluble protein abundance was 0.911 ± 0.066. GRHPR (UniProt Q9UBQ7) was tested, and the NP40-soluble protein abundance was 0.972 ± 0.076. For MINPP1 (UniProt Q9UNW1), the NP40-soluble protein abundance was 0.9225 ± 0.0078. For UBQLN2 (UniProt Q9UHD9), the NP40-soluble protein abundance was 0.801 ± 0.043. Work on ZHX1 (UniProt Q9UKY1) yielded an NP40-soluble protein abundance of 1.08 ± 0.16. In the case of UniProt Q9UJX6 and related entries, the NP40-soluble protein abundance is reported as 1.05 ± 0.019. With UniProt Q9UPW0 and related entries the NP40-soluble protein abundance was 0.872 ± 0.076. In the case of SAE1 (UniProt Q9UBE0), the NP40-soluble protein abundance is reported as 0.949 ± 0.019.
